PubChem BioAssay AID504791, Drosophila RNAi Screening Center, 2011
The deposit covers about 23,000 reagents; shown is a random part of those with a known target gene and a result. Over the whole deposit, 199 (0.86%) got an active call. 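Plate-scaled ratios behind the calls are not deposited; printed light signals are raw; many rows marked increased or decreased are still called inactive.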 Reagents against one gene are numbered here. Names joined by + are all predicted targets of the reagent. Not given: the direction of the score.

Test: 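Factors in Argonaute-based small RNA production and activity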 (primary screen)
Cell system: Drosophila S2-derived reporter cells
Knock-down reagent: long dsRNA against Drosophila genes, about 150-250 ng dsRNA per well (siRNA assay); about 80-120 ng (miRNA assay)
Time to read-out: about 5 days (siRNA assay); about 4 days (miRNA assay)
Treatment: copper sulfate induction of reporters: 25 µM (siRNA assay); 200 mM stated (miRNA assay), 1-2 days before reading
Measurement: 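Dual luciferase assay: Renilla to firefly signal ratio in each well, scaled to the mean ratio of its plate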
Rule for the call: 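a well was a first-pass pick when its plate-scaled ratio rose above 1.5 (siRNA assay) or 1.6 (miRNA assay), or dropped below 0.6; a gene counted only if two separate dsRNAs agreed on retest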

predicted target | reagent no. | stable siRNA reporter change | miRNA reporter change | stable assay Renilla, run 1 (luminescence) | stable assay firefly, run 1 (luminescence) | Call
CG32237 | 1 | – | – | 7239 | 5.74e5 | inactive
CG32237 | 2 | – | – | 6339 | 4.47e5 | inactive
CG11007 | 1 | – | – | 8039 | 2.92e5 | inactive
CanB2 | 1 | – | – | 2648 | 2.72e5 | inactive
mRpL37 | 1 | – | – | 6614 | 4.08e5 | inactive
Fpgs2 | 1 | reporter ratio lowered past the hit cutoff | – | 2792 | 4.49e5 | inactive
CG8229 + CG33199 | 1 | – | – | 5016 | 5.28e5 | inactive
wupA | 1 | – | – | 5155 | 4.22e5 | inactive
wupA | 2 | – | – | 5003 | 4.97e5 | inactive
LanB2 | 1 | – | – | 7673 | 4.08e5 | inactive
Rox8 | 1 | – | – | 5395 | 2.85e5 | inactive
CG4462 | 1 | – | – | 8890 | 3.07e5 | inactive
Reepl1 | 1 | – | – | 5559 | 5.17e5 | inactive
scpr-B | 1 | – | – | 9464 | 6.28e5 | inactive
CG32199 | 1 | – | – | 8239 | 3.94e5 | inactive
CG13135 | 1 | – | – | 6484 | 3.00e5 | inactive
Lamtor5 | 1 | – | – | 8147 | 4.33e5 | inactive
Dtwd2 | 1 | – | – | 6799 | 3.62e5 | inactive
Mad | 1 | – | – | 7020 | 3.90e5 | inactive
CG2608 | 1 | – | – | 14351 | 2.21e6 | inactive
Fas1 | 1 | – | – | 7066 | 5.20e5 | inactive
betaTub56D | 1 | – | – | 8092 | 3.73e5 | inactive
Jhbp6 | 1 | – | – | 6380 | 3.23e5 | inactive
CG43347 | 1 | – | – | 5236 | 3.96e5 | inactive
CG43347 | 2 | – | – | 3924 | 2.49e5 | inactive
CG43347 | 3 | – | – | 3011 | 3.33e5 | inactive
CG43347 | 4 | – | – | 4659 | 4.00e5 | inactive
CG43347 | 5 | – | – | 3767 | 3.14e5 | inactive
CG43347 | 6 | – | – | 7022 | 5.33e5 | inactive
Pp2A-29B | 1 | – | – | 6964 | 3.03e5 | inactive
CtsF | 1 | – | – | 6436 | 4.14e5 | inactive
CtsF | 2 | – | – | 8758 | 5.91e5 | inactive
CtsF | 3 | – | – | 6090 | 4.24e5 | inactive
CG10359 | 1 | – | – | 8370 | 4.51e5 | inactive
Pp1-Y1 | 1 | – | – | 3943 | 4.35e5 | inactive
Sgs8 | 1 | – | – | 6671 | 4.16e5 | inactive
ppk7 | 1 | – | – | 9026 | 5.84e5 | inactive
Lcp65Ab2 + Lcp65Ab1 | 1 | – | – | 6508 | 4.75e5 | inactive
Lcp65Ab2 + Lcp65Ab1 | 2 | – | – | 6699 | 4.75e5 | inactive
CG6793 | 1 | – | – | 4704 | 2.89e5 | inactive
CR41501 | 1 | – | – | 5442 | 3.73e5 | inactive
CG34367 | 1 | – | – | 6748 | 3.22e5 | inactive
CG34367 | 2 | – | – | 6423 | 3.03e5 | inactive
cona | 1 | – | – | 6995 | 2.89e5 | inactive
THADA | 1 | – | – | 6846 | 4.59e5 | inactive
ninaC | 1 | – | – | 34910 | 4.40e5 | inactive
CG7231 | 1 | – | – | 7147 | 3.16e5 | inactive
CG32448 | 1 | – | – | 3683 | 4.53e5 | inactive
CG34328 | 1 | reporter ratio raised past the hit cutoff | – | 8338 | 1.17e5 | inactive
CG7352 | 1 | – | – | 6748 | 4.04e5 | inactive
CG12769 | 1 | – | – | 8575 | 5.20e5 | inactive
CG8642 | 1 | – | – | 6543 | 3.20e5 | inactive
CG17574 | 1 | – | – | 5176 | 4.58e5 | inactive
CG5439 | 1 | – | – | 23939 | 4.70e5 | inactive
Ugt49B2 | 1 | – | – | 8455 | 4.05e5 | inactive
E2f2 | 1 | – | – | 11799 | 6.59e5 | inactive
loaf | 1 | – | – | 4032 | 3.39e5 | inactive
CG18649 | 1 | – | reporter ratio lowered past the hit cutoff | 7094 | 3.75e5 | inactive
Muc26B | 1 | – | – | 6718 | 4.32e5 | inactive
CG6153 | 1 | – | – | 23195 | 8.09e5 | inactive
DIP-zeta | 1 | – | – | 7286 | 4.09e5 | inactive
DIP-zeta | 2 | – | – | 6326 | 5.70e5 | inactive
DIP-zeta | 3 | – | – | 6874 | 3.10e5 | inactive
CG18788 | 1 | – | – | 7832 | 5.16e5 | inactive
slgA | 1 | – | – | 7592 | 4.42e5 | inactive
jhamt | 1 | – | – | 7236 | 3.89e5 | inactive
CR11386 + CR33222 | 1 | – | – | 5322 | 3.84e5 | inactive
ptc | 1 | – | – | 5227 | 6.05e5 | inactive
ptc | 2 | – | – | 5647 | 3.67e5 | inactive
CG1544 | 1 | – | – | 8043 | 6.05e5 | inactive
CG8673 | 1 | – | – | 7408 | 4.12e5 | inactive
CG12942 | 1 | – | – | 8694 | 4.75e5 | inactive
Ald2 | 1 | – | – | 7411 | 4.18e5 | inactive
CG34039 | 1 | – | – | 4996 | 3.16e5 | inactive
CG9812 | 1 | – | – | 6698 | 3.77e5 | inactive
CG14177 (retired record) | 1 | – | – | 3384 | 3.46e5 | inactive
pAbp | 1 | – | reporter ratio lowered past the hit cutoff | 7079 | 3.39e5 | inactive
PolD3 | 1 | – | – | 2.03e5 | 1.15e6 | inactive
verm | 1 | – | – | 10473 | 4.06e5 | inactive
Tbc1d15-17 | 1 | – | – | 13653 | 1.59e5 | inactive
HipHop | 1 | – | – | 7831 | 2.73e5 | inactive
CG7335 | 1 | – | – | 7634 | 5.08e5 | inactive
CG8142 | 1 | – | – | 8781 | 5.26e5 | inactive
Oatp58Da | 1 | – | – | 7080 | 5.03e5 | inactive
CG5214 | 1 | – | – | 4524 | 4.12e5 | inactive
CG5214 | 2 | – | – | 4011 | 3.99e5 | inactive
CR42785 | 1 | – | – | 5140 | 4.38e5 | inactive
Ugt36F1 | 1 | – | – | 6666 | 3.60e5 | inactive
CG10866 | 1 | – | – | 5664 | 3.79e5 | inactive
Dp1 | 1 | – | – | 9982 | 4.17e5 | inactive
CG42700 | 1 | – | – | 5119 | 2.73e5 | inactive
CG42700 | 2 | – | – | 7134 | 3.50e5 | inactive
CG42700 | 3 | – | – | 3508 | 2.81e5 | inactive
shps | 1 | – | – | 7188 | 3.02e5 | inactive
CG15211 | 1 | – | – | 6310 | 3.74e5 | inactive
dlg1 | 1 | – | – | 4252 | 3.82e5 | inactive
dlg1 | 2 | – | – | 5139 | 5.08e5 | inactive
dlg1 | 3 | – | – | 4447 | 4.64e5 | inactive
dlg1 | 4 | – | – | 7275 | 4.26e5 | inactive
CG2310 | 1 | – | – | 7148 | 5.42e5 | inactive
PGRP-LD + Pmi | 1 | – | – | 8215 | 6.01e5 | inactive
PGRP-LD + Pmi | 2 | – | – | 4164 | 4.00e5 | inactive
CG4611 | 1 | – | – | 6554 | 3.55e5 | inactive
bou | 1 | – | – | 5188 | 2.72e5 | inactive
CG10139 | 1 | – | – | 9678 | 6.24e5 | inactive
CG13408 | 1 | – | – | 4975 | 3.88e5 | inactive
CG13408 | 2 | – | – | 7895 | 4.12e5 | inactive
